Source: PubChem BioAssay AID504774 (Drosophila RNAi Screening Center, 2011)

- Purpose: 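Fly genes whose loss alters survival after alkylation damage to DNA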 (primary screen)
- Cells: Drosophila Kc167 cells
- Reagents: long dsRNA against Drosophila genes, about 0.25 µg dsRNA per well
- Duration: about 6 days: 3 days knock-down, then 3 days with or without MMS
- Conditions: methyl methanesulphonate 0.004% (w/v) for 3 days after knock-down
- Detection: 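Viability in wells given MMS, read as ATP luminescence, normalised by quantiles plate by plate and averaged across replicates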
- Reading the numbers: mean viability with MMS and viability with MMS: higher = more surviving cells after MMS
In all, the deposit lists about 23,000 reagents; shown is an unselected part of those with a known target gene and a result. 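Values are quantile-normalised luminescence on an arbitrary scale; higher means more cells surviving MMS.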 Not all columns of the deposit are shown.

jar [DRSC16974] scored mean viability with MMS 3.55e6; viability with MMS, replicate 1 = 4.04e6. With knock-down of Ugt37D1 [DRSC02645] the results were mean viability with MMS 3.51e6; viability with MMS, replicate 1 = 3.98e6. Against CG31909 [DRSC22180], the values are mean viability with MMS 3.52e6; viability with MMS, replicate 1 = 3.90e6. AttD [DRSC16272] scored mean viability with MMS 1.99e6; viability with MMS, replicate 1 = 4.14e6. CG13101 [DRSC02201] showed mean viability with MMS 3.67e6; viability with MMS, replicate 1 = 4.14e6. Against elg1 [DRSC10229] the deposit lists mean viability with MMS 3.47e6; viability with MMS, replicate 1 = 3.89e6.

Echs1 [DRSC06999] scored mean viability with MMS 3.50e6; viability with MMS, replicate 1 = 3.92e6. After knock-down of Mpc1 [DRSC14770], the screen gave mean viability with MMS 3.55e6; viability with MMS, replicate 1 = 4.02e6. cGlr2 [DRSC04017] showed mean viability with MMS 3.29e6; viability with MMS, replicate 1 = 3.77e6. Against CG13678 [DRSC10036] the deposit lists mean viability with MMS 1.98e6; viability with MMS, replicate 1 = 3.96e6. Acp24A4 [DRSC22352] scored mean viability with MMS 3.51e6; viability with MMS, replicate 1 = 3.90e6. With knock-down of CG42402 [DRSC21116] the results were mean viability with MMS 3.52e6; viability with MMS, replicate 1 = 4.06e6.

Against Ntf-2 [DRSC20552], the entry reads mean viability with MMS 3.76e6; viability with MMS, replicate 1 = 4.23e6. sktl [DRSC04715] showed mean viability with MMS 3.45e6; viability with MMS, replicate 1 = 3.73e6. Cpr76Bd [DRSC11063] gave mean viability with MMS 3.49e6; viability with MMS, replicate 1 = 3.91e6. Depletion of Eig71Eh [DRSC11155] came out at: mean viability with MMS 3.64e6; viability with MMS, replicate 1 = 4.12e6. HLH3B [DRSC18669] scored mean viability with MMS 3.55e6; viability with MMS, replicate 1 = 4.22e6. After knock-down of fand [DRSC06967], the record shows mean viability with MMS 3.12e6; viability with MMS, replicate 1 = 3.60e6.

For P5cr-2 [DRSC15889], the values are mean viability with MMS 3.47e6; viability with MMS, replicate 1 = 3.98e6. Silencing of Gs2 [DRSC20250] came out at: mean viability with MMS 3.55e6; viability with MMS, replicate 1 = 4.02e6. CG33218 (retired record) [DRSC22944] scored mean viability with MMS 3.51e6; viability with MMS, replicate 1 = 3.98e6. Silencing of CG31342 [DRSC15349] resulted in: mean viability with MMS 3.47e6; viability with MMS, replicate 1 = 3.96e6. Silencing of CG31342 [DRSC16246] resulted in: mean viability with MMS 3.49e6; viability with MMS, replicate 1 = 3.78e6. CG31673 [DRSC03207] showed mean viability with MMS 3.47e6; viability with MMS, replicate 1 = 3.74e6.
